PMC5626551
Numbering of substitutions follows the chain as printed. In names and notes the source's numbering stands. No constants are given. Whether binding was seen depends on the method and setting. In cells and extracts the contact can be indirect. Some results given as binding are weak or reduced against the parent protein; the word gives no strength. For some assays here: Sequences can lack the tags named with a protein. Each block holds one binder with its values, some of them ahead of it.

Protein sequences, listed by entry. Tags and fused reporters are not part of them.
UniProt P92177: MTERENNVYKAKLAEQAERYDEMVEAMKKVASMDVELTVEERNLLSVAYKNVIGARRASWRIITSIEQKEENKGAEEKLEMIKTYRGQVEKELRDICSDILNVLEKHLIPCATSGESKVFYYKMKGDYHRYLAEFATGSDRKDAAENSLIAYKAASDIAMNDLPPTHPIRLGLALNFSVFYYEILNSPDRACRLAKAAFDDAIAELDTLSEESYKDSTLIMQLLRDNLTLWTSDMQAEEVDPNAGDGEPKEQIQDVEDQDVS

Assays:
[1] = target: GST–14-3-3ε (Drosophila melanogaster) (UniProt P92177); experiment: pull-down; glutathione-Sepharose beads preloaded with saturating GST–14-3-3ε or GST, 2 h at 4°C with ovary extract in lysis buffer (25 mM Tris pH 7.6, 50 mM NaCl, 0.5% Triton X-100, phosphatase inhibitors); Western blot with anti-Ncd; only the target purified
[2] = target: GST–14-3-3ε (Drosophila melanogaster) (UniProt P92177); experiment: pull-down; glutathione-Sepharose beads preloaded with GST–14-3-3ε, 2 h at 4°C with lysates of S2 cells expressing versions of Ncd-GFP and depleted of endogenous Ncd by RNAi; Western blot with anti-GFP; only the target purified

binding [1]: binds
B1: endogenous Ncd protein (protein, UniProt P20480 1-700)
chain: MESRLPKPSGLKKPQMPIKTVLPTDRIRAGLGGGAAGAGAFNVNANQTYCGNLLPPLSRDLNNLPQVLERRGGGARAASPEPMKLGHRAKLRRSRSACDINELRGNKRTAAAPSLPSIPSKVSRLGGALTVSSQRLVRPAAPSSITATAVKRPPVTRPAPRAAGGAAAKKPAGTGAAASSGAAAAAPKRIAPYDFKARFHDLLEKHKVLKTKYEKQTEDMGELESMPQQLEETQNKLIETESSLKNTQSDNECLQRQVKQHTAKIETITSTLGRTKEELSELQAIHEKVKTEHAALSTEVVHLRQRTEELLRCNEQQAAELETCKEQLFQSNMERKELHNTVMDLRGNIRVFCRIRPPLESEENRMCCTWTYHDESTVELQSIDAQAKSKMGQQIFSFDQVFHPLSSQSDIFEMVSPLIQSALDGYNICIFAYGQTGSGKTYTMDGVPESVGVIPRTVDLLFDSIRGYRNLGWEYEIKATFLEIYNEVLYDLLSNEQKDMEIRMAKNNKNDIYVSNITEETVLDPNHLRHLMHTAKMNRATASTAGNERSSRSHAVTKLELIGRHAEKQEISVGSINLVDLAGSESPKTSTRMTETKNINRSLSELTNVILALLQKQDHIPYRNSKLTHLLMPSLGGNSKTLMFINVSPFQDCFQESVKSLRFAASVNSCKMTKAKRNRYLNNSVANSSTQSNNSGSFDK

binding [2]: binds
B2: Ncd-GFP (WT) (protein, UniProt P20480 1-700)
chain: B1 chain

binding [2]: binds weakly
B3: Ncd(S96A)-GFP (protein, UniProt P20480 1-700)
chain: B1 chain with S96A

binding [2]: binds
B4: Ncd(S94A)-GFP (protein, UniProt P20480 1-700)
chain: B1 chain with S94A

binding [2]: binds weakly
B5: Ncd-3×A-GFP (protein, UniProt P20480 1-700)
chain: B1 chain with S79A, S96A, S114A
